Experimental data published in the supplement of paper PMC12067093, “Discovery and optimisation of a covalent ligand for TRIM25 and its application to targeted protein ubiquitination” (Chemical Science, 2025).
The list shows a part of the results.

Amino acid sequences for entries named in this document (tags omitted). A change or cut given only in a name is not applied to a line headed by its entry.
UniProt Q9NR12, whole entry, looked up: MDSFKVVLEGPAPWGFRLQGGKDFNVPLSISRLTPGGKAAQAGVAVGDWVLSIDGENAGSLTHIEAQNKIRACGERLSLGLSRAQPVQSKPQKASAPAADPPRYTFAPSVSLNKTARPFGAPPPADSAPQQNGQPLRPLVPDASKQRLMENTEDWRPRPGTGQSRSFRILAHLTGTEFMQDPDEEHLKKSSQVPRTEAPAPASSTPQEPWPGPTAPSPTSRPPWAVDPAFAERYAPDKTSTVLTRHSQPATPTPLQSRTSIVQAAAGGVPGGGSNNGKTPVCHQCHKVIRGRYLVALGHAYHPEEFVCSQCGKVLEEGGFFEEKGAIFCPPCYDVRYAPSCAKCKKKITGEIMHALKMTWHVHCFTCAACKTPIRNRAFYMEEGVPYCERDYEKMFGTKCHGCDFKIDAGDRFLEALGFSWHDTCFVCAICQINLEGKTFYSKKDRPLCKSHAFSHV
UniProt Q9H0N5: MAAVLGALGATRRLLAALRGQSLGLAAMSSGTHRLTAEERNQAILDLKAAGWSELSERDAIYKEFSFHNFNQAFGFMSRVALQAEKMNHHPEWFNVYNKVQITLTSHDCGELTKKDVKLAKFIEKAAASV
UniProt Q9HBH1: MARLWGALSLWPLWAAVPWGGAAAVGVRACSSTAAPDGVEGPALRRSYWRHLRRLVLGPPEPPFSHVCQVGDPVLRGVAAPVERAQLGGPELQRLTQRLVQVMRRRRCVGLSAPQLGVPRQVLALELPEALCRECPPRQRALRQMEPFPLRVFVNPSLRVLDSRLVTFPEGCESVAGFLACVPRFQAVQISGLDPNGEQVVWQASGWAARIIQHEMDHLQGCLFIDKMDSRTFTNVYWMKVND
UniProt P11177, whole entry, looked up: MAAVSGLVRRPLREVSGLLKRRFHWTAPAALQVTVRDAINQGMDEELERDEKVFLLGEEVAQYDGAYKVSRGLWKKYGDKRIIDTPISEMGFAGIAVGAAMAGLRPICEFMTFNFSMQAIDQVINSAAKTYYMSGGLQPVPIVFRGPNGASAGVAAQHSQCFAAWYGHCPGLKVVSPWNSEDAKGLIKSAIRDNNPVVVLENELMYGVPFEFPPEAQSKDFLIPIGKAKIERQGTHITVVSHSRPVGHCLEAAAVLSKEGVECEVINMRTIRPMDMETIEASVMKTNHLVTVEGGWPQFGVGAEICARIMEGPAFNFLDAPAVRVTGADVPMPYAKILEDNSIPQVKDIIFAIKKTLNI
UniProt Q15154: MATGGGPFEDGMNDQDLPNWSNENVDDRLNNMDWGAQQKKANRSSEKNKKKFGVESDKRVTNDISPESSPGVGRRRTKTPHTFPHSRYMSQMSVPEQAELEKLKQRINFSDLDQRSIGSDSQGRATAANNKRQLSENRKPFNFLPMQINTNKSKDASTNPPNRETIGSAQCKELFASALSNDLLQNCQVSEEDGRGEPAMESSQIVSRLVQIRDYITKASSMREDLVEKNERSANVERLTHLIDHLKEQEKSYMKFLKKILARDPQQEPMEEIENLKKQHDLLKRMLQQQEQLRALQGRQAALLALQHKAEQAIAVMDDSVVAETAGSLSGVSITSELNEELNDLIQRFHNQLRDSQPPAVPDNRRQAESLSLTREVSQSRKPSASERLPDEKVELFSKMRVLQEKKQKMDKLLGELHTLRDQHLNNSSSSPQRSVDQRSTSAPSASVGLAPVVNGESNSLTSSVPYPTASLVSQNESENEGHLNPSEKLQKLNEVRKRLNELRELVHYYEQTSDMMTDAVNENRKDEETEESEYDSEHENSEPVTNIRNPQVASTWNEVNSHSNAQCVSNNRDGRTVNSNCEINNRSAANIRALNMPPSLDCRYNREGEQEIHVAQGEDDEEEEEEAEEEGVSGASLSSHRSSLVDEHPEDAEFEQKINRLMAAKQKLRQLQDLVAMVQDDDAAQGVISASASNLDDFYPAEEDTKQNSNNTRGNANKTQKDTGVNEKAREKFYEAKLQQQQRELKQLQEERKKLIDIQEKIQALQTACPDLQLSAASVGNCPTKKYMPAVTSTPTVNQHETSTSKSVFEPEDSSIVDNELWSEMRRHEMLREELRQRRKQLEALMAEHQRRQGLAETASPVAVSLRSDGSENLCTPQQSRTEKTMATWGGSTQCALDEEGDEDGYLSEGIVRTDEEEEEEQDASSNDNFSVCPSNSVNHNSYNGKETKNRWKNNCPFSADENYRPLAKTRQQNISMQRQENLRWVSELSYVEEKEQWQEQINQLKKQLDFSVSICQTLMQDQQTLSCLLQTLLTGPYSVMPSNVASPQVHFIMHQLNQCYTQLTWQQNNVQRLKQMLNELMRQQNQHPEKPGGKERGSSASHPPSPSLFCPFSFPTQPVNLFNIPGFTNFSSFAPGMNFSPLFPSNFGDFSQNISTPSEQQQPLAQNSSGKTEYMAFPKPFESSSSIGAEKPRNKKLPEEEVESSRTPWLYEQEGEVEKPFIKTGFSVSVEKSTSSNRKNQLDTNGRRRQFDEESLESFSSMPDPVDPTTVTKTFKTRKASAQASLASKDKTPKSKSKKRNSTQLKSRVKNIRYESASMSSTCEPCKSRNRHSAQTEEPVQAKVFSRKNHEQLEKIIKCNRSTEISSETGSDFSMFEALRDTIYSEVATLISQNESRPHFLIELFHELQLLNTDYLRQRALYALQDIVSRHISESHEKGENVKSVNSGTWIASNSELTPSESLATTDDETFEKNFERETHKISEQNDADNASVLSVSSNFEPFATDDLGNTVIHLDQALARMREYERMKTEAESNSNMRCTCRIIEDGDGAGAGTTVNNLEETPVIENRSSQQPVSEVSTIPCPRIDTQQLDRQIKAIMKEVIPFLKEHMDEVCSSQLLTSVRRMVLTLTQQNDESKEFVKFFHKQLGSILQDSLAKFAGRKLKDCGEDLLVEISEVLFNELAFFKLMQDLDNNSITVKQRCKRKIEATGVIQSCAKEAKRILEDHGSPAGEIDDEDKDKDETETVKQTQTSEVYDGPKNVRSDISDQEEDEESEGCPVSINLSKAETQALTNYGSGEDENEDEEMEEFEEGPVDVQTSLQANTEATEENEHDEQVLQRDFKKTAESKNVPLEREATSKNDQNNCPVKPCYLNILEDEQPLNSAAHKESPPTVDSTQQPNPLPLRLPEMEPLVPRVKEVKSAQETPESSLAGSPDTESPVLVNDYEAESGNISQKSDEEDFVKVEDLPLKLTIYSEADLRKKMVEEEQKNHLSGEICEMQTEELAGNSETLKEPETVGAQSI
UniProt P08559, whole entry, looked up: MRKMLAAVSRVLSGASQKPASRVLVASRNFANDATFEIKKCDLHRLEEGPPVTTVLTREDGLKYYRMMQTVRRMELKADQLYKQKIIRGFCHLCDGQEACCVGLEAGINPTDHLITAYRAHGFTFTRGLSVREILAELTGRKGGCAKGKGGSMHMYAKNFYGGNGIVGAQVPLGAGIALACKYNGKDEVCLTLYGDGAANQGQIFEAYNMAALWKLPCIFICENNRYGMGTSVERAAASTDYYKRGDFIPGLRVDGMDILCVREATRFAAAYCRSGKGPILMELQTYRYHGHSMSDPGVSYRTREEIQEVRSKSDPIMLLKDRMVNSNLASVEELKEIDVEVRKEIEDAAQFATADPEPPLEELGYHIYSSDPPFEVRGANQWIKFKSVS
UniProt P09874, whole entry, looked up: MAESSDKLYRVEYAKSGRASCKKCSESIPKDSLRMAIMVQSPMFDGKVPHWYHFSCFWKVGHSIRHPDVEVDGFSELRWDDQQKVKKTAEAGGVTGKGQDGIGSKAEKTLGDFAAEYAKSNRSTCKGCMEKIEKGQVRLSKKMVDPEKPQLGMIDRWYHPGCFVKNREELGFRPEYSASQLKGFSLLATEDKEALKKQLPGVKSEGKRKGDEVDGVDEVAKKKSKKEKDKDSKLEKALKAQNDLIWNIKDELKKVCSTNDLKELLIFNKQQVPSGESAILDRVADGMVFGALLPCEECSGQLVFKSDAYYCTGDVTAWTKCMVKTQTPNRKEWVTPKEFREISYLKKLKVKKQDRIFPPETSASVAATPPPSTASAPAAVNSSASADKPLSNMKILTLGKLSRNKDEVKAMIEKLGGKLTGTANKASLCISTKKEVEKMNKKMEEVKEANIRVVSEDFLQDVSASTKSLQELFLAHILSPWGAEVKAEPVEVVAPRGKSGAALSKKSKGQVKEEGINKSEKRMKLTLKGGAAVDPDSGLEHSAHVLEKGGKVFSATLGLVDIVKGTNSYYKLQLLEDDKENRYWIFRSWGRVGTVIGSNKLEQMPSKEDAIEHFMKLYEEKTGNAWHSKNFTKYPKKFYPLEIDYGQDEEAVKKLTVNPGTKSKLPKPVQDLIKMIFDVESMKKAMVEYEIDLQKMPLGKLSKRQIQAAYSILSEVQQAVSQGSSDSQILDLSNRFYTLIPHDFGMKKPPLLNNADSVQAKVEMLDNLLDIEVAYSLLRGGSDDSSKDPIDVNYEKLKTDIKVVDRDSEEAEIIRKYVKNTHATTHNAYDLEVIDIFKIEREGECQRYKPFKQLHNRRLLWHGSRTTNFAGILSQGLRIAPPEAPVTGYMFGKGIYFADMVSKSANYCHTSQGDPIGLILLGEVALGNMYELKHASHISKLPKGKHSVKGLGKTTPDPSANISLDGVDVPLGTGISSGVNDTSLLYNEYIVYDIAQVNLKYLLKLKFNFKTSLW
UniProt Q9NTI5: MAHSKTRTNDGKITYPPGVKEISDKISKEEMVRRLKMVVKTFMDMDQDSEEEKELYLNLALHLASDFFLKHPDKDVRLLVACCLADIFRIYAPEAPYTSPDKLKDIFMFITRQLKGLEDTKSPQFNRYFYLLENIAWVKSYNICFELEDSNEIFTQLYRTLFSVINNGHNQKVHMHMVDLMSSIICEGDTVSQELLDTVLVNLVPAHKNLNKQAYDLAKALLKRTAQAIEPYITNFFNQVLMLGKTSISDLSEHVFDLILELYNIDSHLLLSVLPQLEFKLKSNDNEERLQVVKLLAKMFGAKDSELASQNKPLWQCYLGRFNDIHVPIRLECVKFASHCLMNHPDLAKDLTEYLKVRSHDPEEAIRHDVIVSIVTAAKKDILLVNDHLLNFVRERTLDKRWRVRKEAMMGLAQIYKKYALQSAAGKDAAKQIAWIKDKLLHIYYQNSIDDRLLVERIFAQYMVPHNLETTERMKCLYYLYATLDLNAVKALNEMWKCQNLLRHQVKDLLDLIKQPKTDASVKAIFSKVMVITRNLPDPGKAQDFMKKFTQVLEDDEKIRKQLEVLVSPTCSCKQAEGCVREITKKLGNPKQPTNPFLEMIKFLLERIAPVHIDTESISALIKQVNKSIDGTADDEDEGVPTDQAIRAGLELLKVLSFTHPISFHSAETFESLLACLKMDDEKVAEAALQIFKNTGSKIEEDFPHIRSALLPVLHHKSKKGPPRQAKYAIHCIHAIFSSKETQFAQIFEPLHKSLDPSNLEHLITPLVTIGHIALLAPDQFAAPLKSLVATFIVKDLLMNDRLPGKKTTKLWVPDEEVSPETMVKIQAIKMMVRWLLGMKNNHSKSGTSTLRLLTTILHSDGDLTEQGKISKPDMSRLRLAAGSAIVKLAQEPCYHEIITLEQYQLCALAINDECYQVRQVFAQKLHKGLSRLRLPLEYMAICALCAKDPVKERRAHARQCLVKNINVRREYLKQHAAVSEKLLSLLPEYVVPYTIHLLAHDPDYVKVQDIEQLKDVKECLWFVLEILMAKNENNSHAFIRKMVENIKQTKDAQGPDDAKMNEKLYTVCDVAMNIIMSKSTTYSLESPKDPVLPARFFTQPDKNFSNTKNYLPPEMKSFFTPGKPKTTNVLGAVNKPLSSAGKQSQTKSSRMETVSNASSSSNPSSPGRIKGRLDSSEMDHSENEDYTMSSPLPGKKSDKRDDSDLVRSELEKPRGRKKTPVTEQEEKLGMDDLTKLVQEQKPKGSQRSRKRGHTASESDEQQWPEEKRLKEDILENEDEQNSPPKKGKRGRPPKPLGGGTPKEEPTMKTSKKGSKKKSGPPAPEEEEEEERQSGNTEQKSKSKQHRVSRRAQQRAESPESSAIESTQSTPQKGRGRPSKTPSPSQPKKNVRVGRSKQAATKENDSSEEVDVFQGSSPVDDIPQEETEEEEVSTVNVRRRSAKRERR
UniProt Q14554: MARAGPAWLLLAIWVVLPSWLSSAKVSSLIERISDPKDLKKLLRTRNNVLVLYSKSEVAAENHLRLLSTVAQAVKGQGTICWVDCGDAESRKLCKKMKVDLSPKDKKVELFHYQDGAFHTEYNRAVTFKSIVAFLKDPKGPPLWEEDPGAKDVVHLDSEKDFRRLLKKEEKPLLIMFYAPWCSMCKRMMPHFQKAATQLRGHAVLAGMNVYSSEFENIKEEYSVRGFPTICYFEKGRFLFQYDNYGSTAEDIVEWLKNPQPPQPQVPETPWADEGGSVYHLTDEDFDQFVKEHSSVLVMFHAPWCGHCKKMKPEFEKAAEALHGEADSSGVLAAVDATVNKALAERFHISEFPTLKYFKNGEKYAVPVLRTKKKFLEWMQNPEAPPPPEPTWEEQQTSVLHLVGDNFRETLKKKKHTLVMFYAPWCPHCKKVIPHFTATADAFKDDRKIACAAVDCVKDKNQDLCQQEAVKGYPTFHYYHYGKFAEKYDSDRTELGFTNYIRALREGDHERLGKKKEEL

Compound: CC1Cc2ccccc2N1C(=O)C1CCCN(C1)C(=O)CCl (mixture of isomers) [TRIM25 ligand 11 (diastereomer mixture)]
Assay: probe-labelled cysteine peptide fold change vs DMSO (competition) (log2 fold change); higher = less target engagement (more negative = stronger competition)
Settings: THP-1, incubation time: 4 h
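Further: competitive chemoproteomic profiling in live THP-1 cells with an iodoacetamide desthiobiotin (IA-DTB) probe, comparing probe-labelled peptide intensities in compound-treated cells against DMSO-treated controls.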

Row | Target | probe-labelled cysteine peptide fold change (10 µM) | probe-labelled cysteine peptide fold change (50 µM)
1 | PCCB_P05166_291_DFFNYLPLSSQDPAPVRECHDPSDR (UniProt P05166) | -0.277 | -0.347
2 | PDLIM7_Q9NR12_367+370_MTWHVHCFTCAACK (UniProt Q9NR12) | 0.00151 | 0.172
3 | PCDH17_O14917_335_DLGPNPIPAHCK (UniProt O14917) | 0.6 | 0.546
4 | PCBD2_Q9H0N5_109_VQITLTSHDCGELTK (UniProt Q9H0N5) | 0.0678 | 0.111
5 | PBRM1_Q86U86_50_LSNLPTVDPIAVCHELYNTIR (UniProt Q86U86) | -0.12 | -0.0725
6 | PAXX_Q9BUH6_80_AACEQQAVALTLQEDR (UniProt Q9BUH6) | 0.0367 | -0.0122
7 | PCNT_O95613_70_EDSALCGGGDICK (UniProt O95613) | -0.237 | -0.2
8 | PBDC1_Q9BVG4_125_LDCSQGYTEENTIFAPR (UniProt Q9BVG4) | 0.123 | 0.233
9 | PDF_Q9HBH1_68_LVLGPPEPPFSHVCQVGDPVLR (UniProt Q9HBH1) | 0.00596 | 0.0851
10 | PDIA6_Q15084_58_EVIQSDSLWLVEFYAPWCGHCQR (UniProt Q15084) | -0.159 | -0.16
11 | PARP4_Q9UKK3_1099_LLVYGFIPHCTQATLCALIQEK (UniProt Q9UKK3) | 0.224 | -0.243
12 | PCGF5_Q86SE9_42+53_TCIVQHFEDSNDCPR (UniProt Q86SE9) | 0.0601 | -0.0814
13 | PDHB_P11177_161_GPNGASAGVAAQHSQCFAAWYGHCPGLK (UniProt P11177) | 0.0327 | 0.0759
14 | PCM1_Q15154_783_IQALQTACPDLQLSAASVGNCPTK (UniProt Q15154) | 0.0485 | -0.142
15 | PDCD2L_Q9BRP1_260_IAACQEQILR (UniProt Q9BRP1) | 0.104 | 0.104
16 | PCM1_Q15154_1717_IEATGVIQSCAK (UniProt Q15154) | -0.0458 | -0.293
17 | PDE3B_Q13370_475_RPHQEFGISSQGCYLNGPFNSNLLTIPK (UniProt Q13370) | 0.118 | -0.381
18 | PDF_Q9HBH1_172+181_LVTFPEGCESVAGFLACVPR (UniProt Q9HBH1) | 0.0549 | 0.0225
19 | PDS5A_Q29RF7_486_CLYYLYASLDPNAVK (UniProt Q29RF7) | 0.0833 | 0.0765

Row | Target | probe-labelled cysteine peptide fold change (10 µM) | probe-labelled cysteine peptide fold change (50 µM)
20 | PCBP2_Q15366-2_302_GYWAGLDASAQTTSHELTIPNDLIGCIIGR (UniProt Q15366) | -0.105 | -0.0493
21 | PDHA1_P08559_261_VDGMDILCVR (UniProt P08559) | -0.000985 | 0.47
22 | PARP1_P09874_845_IEREGECQR (UniProt P09874) | -0.00747 | 0.129
23 | PCBP1_Q15365_201_CSDAAGYPHATHDLEGPPLDAYSIQGQHTISPLDLAK (UniProt Q15365) | -0.108 | -0.282
24 | PDHB_P11177_249_QGTHITVVSHSRPVGHCLEAAAVLSK (UniProt P11177) | -0.0181 | -0.0863
25 | PDLIM7_Q9NR12_285_TPVCHQCHK (UniProt Q9NR12) | -0.0165 | 0.02
26 | PDIA4_P13667_91+94_DTVLLEFYAPWCGHCK (UniProt P13667) | -0.0279 | -0.235
27 | PCID2_Q5JVF3_83_CQTVIVQSFLR (UniProt Q5JVF3) | 0.0416 | 0.0246
28 | PDS5B_Q9NTI5_571_QLEVLVSPTCSCK (UniProt Q9NTI5) | -0.0218 | -0.0172
29 | PDS5B_Q9NTI5_946_LPLEYMAICALCAK (UniProt Q9NTI5) | 0.233 | 0.0315
30 | PDPR_Q8NCN5_598_SFFMISPTDQQVHCWAWLK (UniProt Q8NCN5) | -0.233 | 0.132
31 | PDHA1_P08559_261_GDFIPGLRVDGMDILCVR (UniProt P08559) | -0.504 | -0.121
32 | PDIA5_Q14554_451_IACAAVDCVK (UniProt Q14554) | -0.156 | -0.14
33 | PDCD11_Q14690_557_DYGCIVK (UniProt Q14690) | 0.00725 | 0.196
34 | PARP1_P09874_429_ASLCISTKK (UniProt P09874) | -0.437 | -0.28
35 | PARP1_P09874_298_VADGMVFGALLPCEECSGQLVFK (UniProt P09874) | -0.104 | 0.156
36 | PDXDC1_Q6P996_573_SCLYVGMASDNVDAAELVETIAATAR (UniProt Q6P996) | 0.174 | -0.106
37 | PCNT_O95613_1252_ECEQPIRR (UniProt O95613) | 0.145 | 0.134
